Laboratory results: PubChem BioAssay AID1259308 (NCATS, 2017)
This is an unselected part of about 59,000 reagents tested. Of all reagents, about 1,510 (2.6%) got an active call. 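Calls use total luciferase alone and ignore viability, so some active siRNAs may act by altering cell number.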 Unmarked entries are inactive. Reagents against one gene are numbered here. Further read-outs or replicates are left out here. Reagent sequences are not shown.

Assay: 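Knock-downs that increase output of a recombinant reporter protein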 (primary screen)
Cell system: human HEK293 embryonic kidney cells stably expressing firefly luciferase (HEK-CMV-Luc2-Hygro)
Knock-down reagent: single siRNA against human genes, 0.8 pmol siRNA per well
Duration: 72 h
Read-out: 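Luciferase light (ONE-Glo) measured on one replicate plate set and viability (CellTiter-Glo) on the other, scaled to a negative control siRNA, with robust z-scores and luciferase per cell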
Reading the numbers: total luciferase, z-score and total luciferase, % of control: higher = more reporter protein produced; luciferase per cell, z-score: higher = more reporter output per viable cell
Hit rule: 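Active when the median/MAD z-score for overall luciferase is greater than 3; a gene was taken forward for validation with new siRNAs if at least two of its three siRNAs passed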
Meaning of the calls: active = raised luciferase; inactive = no rise

| gene | siRNA no. | total luciferase, z-score | total luciferase, % of control | luciferase per cell, z-score |
| --- | --- | --- | --- | --- |
| KLKB1 (GeneID 3818) | 1 | -0.624 | 69.5 | -0.0463 |
| KLKB1 (GeneID 3818) | 2 | -0.0618 | 80.7 | 0.704 |
| KLKB1 (GeneID 3818) | 3 | 0.023 | 82.3 | 0.253 |
| VSIG10 (GeneID 54621) | 1 | 3.68 (active) | 155 | 2.64 |
| VSIG10 (GeneID 54621) | 2 | 0.199 | 85.8 | -0.408 |
| VSIG10 (GeneID 54621) | 3 | 1.48 | 111 | 1.47 |
| NPS (GeneID 594857) | 1 | -0.388 | 74.2 | 0.107 |
| NPS (GeneID 594857) | 2 | -0.121 | 79.5 | -0.399 |
| NPS (GeneID 594857) | 3 | -0.822 | 65.5 | -0.99 |
| UQCRC1 (GeneID 7384) | 1 | -1.19 | 58.2 | -1.23 |
| UQCRC1 (GeneID 7384) | 2 | 0.552 | 92.9 | 0.212 |
| UQCRC1 (GeneID 7384) | 3 | 1.04 | 103 | 0.525 |
| FLOT1 (GeneID 10211) | 1 | -2.23 | 37.5 | -0.958 |
| FLOT1 (GeneID 10211) | 2 | -0.0456 | 81 | -0.33 |
| FLOT1 (GeneID 10211) | 3 | -0.715 | 67.7 | -0.535 |
| GPR88 (GeneID 54112) | 1 | 0.537 | 92.6 | 0.308 |
| GPR88 (GeneID 54112) | 2 | -0.298 | 76 | 0.0938 |
| GPR88 (GeneID 54112) | 3 | -0.101 | 79.9 | -0.503 |
| ALG10 (GeneID 84920) | 1 | 0.211 | 86.1 | -0.0642 |
| ALG10 (GeneID 84920) | 2 | 1.41 | 110 | 0.772 |
| ALG10 (GeneID 84920) | 3 | -0.446 | 73 | -0.845 |
| LINC02043 (GeneID 102724699) | 1 | -1.7 | 48.2 | -1.47 |
| LINC02043 (GeneID 102724699) | 2 | -1.77 | 46.6 | -1.18 |
| LINC02043 (GeneID 102724699) | 3 | 0.494 | 91.7 | 1.01 |
| LRP3 (GeneID 4037) | 1 | -2.16 | 38.8 | -1.8 |
| LRP3 (GeneID 4037) | 2 | -0.311 | 75.7 | -1.04 |
| LRP3 (GeneID 4037) | 3 | 0.48 | 91.4 | 0.343 |
| RPL7AP66 (GeneID 388474) | 1 | -1.76 | 46.9 | 1.88 |
| RPL7AP66 (GeneID 388474) | 2 | -0.827 | 65.4 | -0.381 |
| RPL7AP66 (GeneID 388474) | 3 | -2.13 | 39.5 | -0.152 |
| PSMB5 (GeneID 5693) | 1 | 0.278 | 87.4 | 2.05 |
| PSMB5 (GeneID 5693) | 2 | -0.26 | 76.7 | 1.43 |
| PSMB5 (GeneID 5693) | 3 | -0.0673 | 80.5 | 2.52 |
| LINC01521 (GeneID 54944) | 1 | 0.31 | 88 | 1.17 |
| LINC01521 (GeneID 54944) | 2 | 0.308 | 88 | 0.587 |
| LINC01521 (GeneID 54944) | 3 | -0.153 | 78.9 | -0.715 |
| MRPL23 (GeneID 6150) | 1 | -0.428 | 73.4 | -0.568 |
| MRPL23 (GeneID 6150) | 2 | 1.21 | 106 | 1.38 |
| MRPL23 (GeneID 6150) | 3 | 0.581 | 93.4 | 0.42 |
| SYNJ2BP (GeneID 55333) | 1 | 0.255 | 87 | -0.0304 |
| SYNJ2BP (GeneID 55333) | 2 | 0.674 | 95.3 | 0.445 |
| SYNJ2BP (GeneID 55333) | 3 | -0.471 | 72.5 | -0.00484 |
| IMMP1L (GeneID 196294) | 1 | 0.198 | 85.8 | -0.216 |
| IMMP1L (GeneID 196294) | 2 | 0.965 | 101 | 0.681 |
| IMMP1L (GeneID 196294) | 3 | -2.11 | 39.8 | -1.9 |
| REEP3 (GeneID 221035) | 1 | 0.46 | 91 | 0.478 |
| REEP3 (GeneID 221035) | 2 | -0.216 | 77.6 | -0.0682 |
| REEP3 (GeneID 221035) | 3 | 0.236 | 86.6 | -0.406 |
| BTBD1 (GeneID 53339) | 1 | -0.232 | 77.3 | -0.479 |
| BTBD1 (GeneID 53339) | 2 | 0.216 | 86.2 | 0.0408 |
| BTBD1 (GeneID 53339) | 3 | 1.52 | 112 | 1.1 |
| KLF3 (GeneID 51274) | 1 | -1.21 | 57.9 | 0.853 |
| KLF3 (GeneID 51274) | 2 | -0.552 | 70.9 | -0.851 |
| KLF3 (GeneID 51274) | 3 | -1.35 | 55 | -0.0972 |
| KCNMB3 (GeneID 27094) | 1 | 0.097 | 83.8 | -0.183 |
| KCNMB3 (GeneID 27094) | 2 | 0.17 | 85.3 | -0.214 |
| KCNMB3 (GeneID 27094) | 3 | -0.0754 | 80.4 | -0.222 |
| TIGD2 (GeneID 166815) | 1 | -0.195 | 78 | -0.695 |
| TIGD2 (GeneID 166815) | 2 | -0.643 | 69.1 | -1.19 |
| TIGD2 (GeneID 166815) | 3 | 0.475 | 91.3 | -0.294 |
| ZNF335 (GeneID 63925) | 1 | 2.41 | 130 | 3.01 |
| ZNF335 (GeneID 63925) | 2 | 0.516 | 92.2 | 1.05 |
| ZNF335 (GeneID 63925) | 3 | -0.103 | 79.8 | -0.109 |
| FAM237A (GeneID 200726) | 1 | -0.188 | 78.1 | -0.0455 |
| FAM237A (GeneID 200726) | 2 | -1.33 | 55.5 | -1.15 |
| FAM237A (GeneID 200726) | 3 | 6.06 (active) | 203 | 3.37 |
| RABGGTA (GeneID 5875) | 1 | 1.99 | 122 | 1.32 |
| RABGGTA (GeneID 5875) | 2 | -0.284 | 76.2 | 0.0139 |
| RABGGTA (GeneID 5875) | 3 | -2.03 | 41.5 | -2.63 |
| DEFB114 (GeneID 245928) | 1 | 0.358 | 89 | 0.448 |
| DEFB114 (GeneID 245928) | 2 | 0.812 | 98 | 1.51 |
| DEFB114 (GeneID 245928) | 3 | 2.55 | 133 | 1.35 |
| COQ4 (GeneID 51117) | 1 | -0.36 | 74.7 | 0.509 |
| COQ4 (GeneID 51117) | 2 | 1.07 | 103 | 0.529 |
| COQ4 (GeneID 51117) | 3 | -0.644 | 69.1 | -1.19 |

Entries above whose gene name begins with U or u:
| gene | siRNA no. | total luciferase, z-score | total luciferase, % of control | luciferase per cell, z-score |
| --- | --- | --- | --- | --- |
| UQCRC1 (GeneID 7384) | 1 | -1.19 | 58.2 | -1.23 |
| UQCRC1 (GeneID 7384) | 2 | 0.552 | 92.9 | 0.212 |
| UQCRC1 (GeneID 7384) | 3 | 1.04 | 103 | 0.525 |
